No constants are given. Whether binding was seen depends on the method and setting. Some binding calls cover weakened binding; strength is not graded here.
Assays:
MinD (B. subtilis 168) = target: T1, MinD (B. subtilis 168) (UniProt Q01464); assay: two-hybrid; Gal4 system in yeast PJ69-4A/PJ69-4α: BD baits (pGBDU-C1) mated with the AD-fusion B. subtilis genomic library (pGAD) or with AD fusions; growth on SC-LUH with 0.5 mM 3-aminotriazole and on SC-LUA at 30°C; hits retested in binary specificity matings
T1 sequence: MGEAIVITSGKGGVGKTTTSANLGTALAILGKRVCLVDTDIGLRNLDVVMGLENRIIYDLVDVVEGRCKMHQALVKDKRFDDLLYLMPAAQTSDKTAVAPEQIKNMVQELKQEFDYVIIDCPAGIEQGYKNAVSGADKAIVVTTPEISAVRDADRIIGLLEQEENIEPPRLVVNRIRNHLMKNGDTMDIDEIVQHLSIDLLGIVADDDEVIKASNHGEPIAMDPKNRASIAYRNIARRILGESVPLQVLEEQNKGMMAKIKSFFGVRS

PtpZ (B. subtilis 168) = target: T2, PtpZ (B. subtilis 168) (UniProt P96717); assay: as above
T2 sequence: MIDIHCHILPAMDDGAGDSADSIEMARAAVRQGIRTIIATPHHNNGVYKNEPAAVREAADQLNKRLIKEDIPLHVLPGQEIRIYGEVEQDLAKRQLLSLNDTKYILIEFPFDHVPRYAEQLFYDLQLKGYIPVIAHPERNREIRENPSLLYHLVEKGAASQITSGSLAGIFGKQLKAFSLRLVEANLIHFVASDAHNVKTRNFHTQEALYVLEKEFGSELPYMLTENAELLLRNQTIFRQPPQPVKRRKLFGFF

DnaC (B. subtilis) = target: T3, DnaC (B. subtilis) (UniProt P37469); assay: as above
T3 sequence: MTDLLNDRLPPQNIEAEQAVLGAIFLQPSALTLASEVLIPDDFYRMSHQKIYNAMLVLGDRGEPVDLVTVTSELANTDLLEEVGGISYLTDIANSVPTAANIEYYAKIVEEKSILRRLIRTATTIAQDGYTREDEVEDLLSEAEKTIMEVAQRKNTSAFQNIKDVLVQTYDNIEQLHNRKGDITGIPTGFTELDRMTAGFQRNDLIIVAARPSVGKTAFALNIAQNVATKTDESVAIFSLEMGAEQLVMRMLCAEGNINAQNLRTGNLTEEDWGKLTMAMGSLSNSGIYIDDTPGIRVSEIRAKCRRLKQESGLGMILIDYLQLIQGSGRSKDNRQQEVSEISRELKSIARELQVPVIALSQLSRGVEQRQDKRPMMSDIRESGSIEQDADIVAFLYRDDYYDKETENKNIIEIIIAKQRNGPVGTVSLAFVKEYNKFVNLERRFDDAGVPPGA

SalA (B. subtilis 168) = target: T4, SalA (B. subtilis 168) (UniProt P50863); assay: as above
T4 sequence: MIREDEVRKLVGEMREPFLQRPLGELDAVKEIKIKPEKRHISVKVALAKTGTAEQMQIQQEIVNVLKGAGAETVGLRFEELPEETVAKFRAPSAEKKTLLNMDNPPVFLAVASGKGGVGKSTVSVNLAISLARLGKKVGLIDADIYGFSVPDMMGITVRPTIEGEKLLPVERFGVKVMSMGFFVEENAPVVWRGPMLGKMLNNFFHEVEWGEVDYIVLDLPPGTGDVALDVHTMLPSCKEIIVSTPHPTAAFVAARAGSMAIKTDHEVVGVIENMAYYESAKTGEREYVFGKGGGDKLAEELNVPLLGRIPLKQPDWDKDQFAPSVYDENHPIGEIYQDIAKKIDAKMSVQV

PrkD (B. subtilis) = target: T5, PrkD (B. subtilis) (UniProt O31435); assay: as above
T5 sequence: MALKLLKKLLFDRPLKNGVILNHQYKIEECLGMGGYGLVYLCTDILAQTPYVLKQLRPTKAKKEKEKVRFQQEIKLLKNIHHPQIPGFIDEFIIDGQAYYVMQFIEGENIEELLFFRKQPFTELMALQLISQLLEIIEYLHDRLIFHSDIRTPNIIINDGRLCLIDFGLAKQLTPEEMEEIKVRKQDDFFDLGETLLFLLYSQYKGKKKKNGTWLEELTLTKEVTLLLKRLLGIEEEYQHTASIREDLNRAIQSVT

SpoIIE (B. subtilis 168) = target: T6, SpoIIE (B. subtilis 168) (UniProt P37475); assay: as above
T6 sequence: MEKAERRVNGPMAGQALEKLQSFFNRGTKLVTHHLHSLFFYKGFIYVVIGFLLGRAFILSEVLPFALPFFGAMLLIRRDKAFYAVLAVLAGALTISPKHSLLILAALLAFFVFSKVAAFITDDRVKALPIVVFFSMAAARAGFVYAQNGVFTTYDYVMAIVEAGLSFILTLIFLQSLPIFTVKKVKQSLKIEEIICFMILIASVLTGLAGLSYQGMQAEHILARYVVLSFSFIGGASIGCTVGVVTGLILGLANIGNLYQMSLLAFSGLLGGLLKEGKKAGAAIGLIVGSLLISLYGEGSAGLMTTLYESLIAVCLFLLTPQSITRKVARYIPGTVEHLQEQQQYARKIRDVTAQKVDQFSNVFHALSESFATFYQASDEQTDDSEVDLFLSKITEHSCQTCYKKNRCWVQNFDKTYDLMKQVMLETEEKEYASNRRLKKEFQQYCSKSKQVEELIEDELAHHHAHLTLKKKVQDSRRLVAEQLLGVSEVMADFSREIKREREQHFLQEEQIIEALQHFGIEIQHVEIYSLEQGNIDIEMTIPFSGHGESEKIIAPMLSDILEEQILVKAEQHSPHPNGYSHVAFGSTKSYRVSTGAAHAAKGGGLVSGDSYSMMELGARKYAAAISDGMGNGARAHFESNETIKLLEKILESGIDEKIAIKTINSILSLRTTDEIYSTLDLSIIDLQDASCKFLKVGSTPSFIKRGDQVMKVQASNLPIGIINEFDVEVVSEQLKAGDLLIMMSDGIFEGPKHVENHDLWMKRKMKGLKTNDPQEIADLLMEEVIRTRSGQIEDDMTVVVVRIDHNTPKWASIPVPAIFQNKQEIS

[1] = target: T7, DnaC (of the co-purified DnaC/I complex) (B. subtilis 168) (UniProt P37469); assay: co-purification; DnaC/I complex co-purified for the phosphorylation assay; bait, tag and conditions not told
T7 sequence: T3 sequence

B1: YabT (enzyme, UniProt P37562 1-338)
chain: MMNDALTSLACSLKPGTTIKGKWNGNTYTLRKQLGKGANGIVYLAETSDGHVALKVSDDSLSITSEVNVLKSFSKAQSVTMGPSFFDTDDAYIPSANTKVSFYAMEYIKGPLLLKYVSDKGAEWIPVLMIQLLSSLSVLHQQGWIFGDLKPDNLIVTGPPARIRCIDVGGTTKEGRAIKEYTEFYDRGYWGYGTRKAEPSYDLFAVAMIMINSVHKKEFKKTNQPKEQLRSLIEGNPLLQKYKKALFSALNGDYQSADEMKKDMLDAGQKAAQRKQPIKASPQPATRQRQQKPRQGKITKTRYTPKQKPAKSGGLFETTLIVISVLALYFAYIIFFLI
**Q.** With B1 as the binder, how does the binding (MinD (B. subtilis 168)) read?
**A.** binds

**Q.** What about the binding (PtpZ (B. subtilis 168)) of the same binder?
**A.** binds

B2: PrkD (enzyme, UniProt O31435 1-256)
chain: T5 sequence
**Q.** For B2, which binding (DnaC (B. subtilis)) is on record?
**A.** binds

**Q.** And the binding (SalA (B. subtilis 168))?
**A.** binds

B3: RsbT (enzyme, UniProt P42411 1-133)
chain: MNDQSCVRIMTEWDIVAARQLGRNVAKELGFGTVDQARITTAISELARNIYLYAGKGQIGIEQVADRGKKGLKIIAEDQGPGIPDIRKVMEDGFSTSGGLGAGLPGVKRLMDEFSLNSVAGEGTEIQAIKWLR
**Q.** Which binding (PrkD (B. subtilis)) does the source give for B3 here?
**A.** binds

**Q.** And the binding (PtpZ (B. subtilis 168))?
**A.** binds

B4: DegS (enzyme, UniProt P13799 1-385)
chain: MNKTKMDSKVLDSILMKMLKTVDGSKDEVFQIGEQSRQQYEQLVEELKQIKQQVYEVIELGDKLEVQTRHARNRLSEVSRNFHRFSEEEIRNAYEKAHKLQVELTMIQQREKQLRERRDDLERRLLGLQEIIERSESLVSQITVVLNYLNQDLREVGLLLADAQAKQDFGLRIIEAQEEERKRVSREIHDGPAQMLANVMMRSELIERIFRDRGAEDGFQEIKNLRQNVRNALYEVRRIIYDLRPMALDDLGLIPTLRKYLYTTEEYNGKVKIHFQCIGETEDQRLAPQFEVALFRLAQEAVSNALKHSESEEITVKVEITKDFVILMIKDNGKGFDLKEAKEKKNKSFGLLGMKERVDLLEGTMTIDSKIGLGTFIMIKVPLSL
**Q.** How did the binding (SpoIIE (B. subtilis 168)) turn out when B4 was run?
**A.** binds

B5: DnaI (of the co-purified DnaC/I complex) (protein, UniProt P06567 1-311)
chain: MEPIGRSLQGVTGRPDFQKRLEQMKEKVMKDQDVQAFLKENEEVIDQKMIEKSLNKLYEYIEQSKNCSYCSEDENCNNLLEGYHPKLVVNGRSIDIEYYECPVKRKLDQQKKQQSLMKSMYIQQDLLGATFQQVDISDPSRLAMFQHVTDFLKSYNETGKGKGLYLYGKFGVGKTFMLAAIANELAEKEYSSMIVYVPEFVRELKNSLQDQTLEEKLNMVKTTPVLMLDDIGAESMTSWVRDEVIGTVLQHRMSQQLPTFFSSNFSPDELKHHFTYSQRGEKEEVKAARLMERILYLAAPIRLDGENRRHP
**Q.** With B5 as the binder, how does the binding [1] read?
**A.** binds

B6: MinD (protein, UniProt Q01464 1-268)
chain: T1 sequence
**Q.** For B6, which binding (PtpZ (B. subtilis 168)) is on record?
**A.** binds
